Data as given in patent US20240207250A1, “AGENT FOR PROMOTING LIPID REDUCTION” (MITSUBISHI GAS CHEMICAL COMPANY, INC., priority 2021, published 2024).
Some entries share one result that the patent states for a list of compounds.

Tested on: daphnids (Daphnia magna)
Assay: Body fat percentage of daphnids (body fat/body length)
Assay type: in vivo
Settings: Nile red fluorescence related to body length; Comparative Example 1 = 100

For `CC(C)Cc1nc2c(=O)c3cc(C(=O)O)[nH]c3c3c(C(=O)O)cc(C(=O)O)n1c23` [Example 3, leucine residue IPQ], the “body fat percentage (fat reduction effect), FIG. 1” value was “strong fat reduction effect”.
